Test results as given in paper PMC10957230.

Chains of the proteins cited; added tags and fusions are not shown. Residues count along the entry.
UniProt Q2TV84: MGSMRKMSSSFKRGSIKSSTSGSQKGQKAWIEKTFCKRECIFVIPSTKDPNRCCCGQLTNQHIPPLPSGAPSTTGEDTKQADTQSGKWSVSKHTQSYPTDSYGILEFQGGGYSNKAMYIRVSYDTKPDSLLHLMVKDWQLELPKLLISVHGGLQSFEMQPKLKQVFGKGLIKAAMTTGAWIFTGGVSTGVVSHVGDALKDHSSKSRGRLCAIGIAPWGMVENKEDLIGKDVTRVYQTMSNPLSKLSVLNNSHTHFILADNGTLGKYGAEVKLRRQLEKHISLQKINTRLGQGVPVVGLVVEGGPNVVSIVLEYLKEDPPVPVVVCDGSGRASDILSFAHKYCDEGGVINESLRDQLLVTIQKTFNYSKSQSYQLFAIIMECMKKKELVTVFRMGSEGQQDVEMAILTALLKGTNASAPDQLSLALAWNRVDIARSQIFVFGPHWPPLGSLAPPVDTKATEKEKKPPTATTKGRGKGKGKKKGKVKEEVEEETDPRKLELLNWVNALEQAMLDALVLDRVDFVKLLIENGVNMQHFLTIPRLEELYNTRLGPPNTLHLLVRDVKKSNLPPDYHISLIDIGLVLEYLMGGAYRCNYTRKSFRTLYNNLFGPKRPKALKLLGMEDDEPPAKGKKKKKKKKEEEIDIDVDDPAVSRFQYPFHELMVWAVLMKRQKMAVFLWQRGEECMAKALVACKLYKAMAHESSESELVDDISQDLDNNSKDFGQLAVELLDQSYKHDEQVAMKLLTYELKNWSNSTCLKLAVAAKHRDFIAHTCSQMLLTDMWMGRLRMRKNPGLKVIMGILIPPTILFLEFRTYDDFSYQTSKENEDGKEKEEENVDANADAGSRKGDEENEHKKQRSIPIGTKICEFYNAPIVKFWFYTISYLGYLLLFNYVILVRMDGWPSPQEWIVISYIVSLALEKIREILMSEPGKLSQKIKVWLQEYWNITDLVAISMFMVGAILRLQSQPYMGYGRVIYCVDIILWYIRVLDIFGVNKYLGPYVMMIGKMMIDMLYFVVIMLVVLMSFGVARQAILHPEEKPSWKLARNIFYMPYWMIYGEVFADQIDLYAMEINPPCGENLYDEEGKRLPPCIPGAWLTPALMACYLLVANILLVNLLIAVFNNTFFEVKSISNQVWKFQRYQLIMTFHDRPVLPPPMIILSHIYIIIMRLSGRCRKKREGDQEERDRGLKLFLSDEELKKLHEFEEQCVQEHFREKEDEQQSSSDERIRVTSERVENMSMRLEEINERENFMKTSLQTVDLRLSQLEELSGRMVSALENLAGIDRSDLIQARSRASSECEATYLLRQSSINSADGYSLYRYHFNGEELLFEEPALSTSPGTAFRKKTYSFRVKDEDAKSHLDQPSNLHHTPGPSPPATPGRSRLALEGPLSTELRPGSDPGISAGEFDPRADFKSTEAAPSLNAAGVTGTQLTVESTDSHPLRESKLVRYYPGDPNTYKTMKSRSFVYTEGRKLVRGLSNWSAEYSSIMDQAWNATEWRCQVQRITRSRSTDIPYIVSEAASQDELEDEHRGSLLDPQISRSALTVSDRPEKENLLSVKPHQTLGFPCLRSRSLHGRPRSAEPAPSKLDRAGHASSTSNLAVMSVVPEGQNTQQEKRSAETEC
UniProt E9PY61, residues 28-2293: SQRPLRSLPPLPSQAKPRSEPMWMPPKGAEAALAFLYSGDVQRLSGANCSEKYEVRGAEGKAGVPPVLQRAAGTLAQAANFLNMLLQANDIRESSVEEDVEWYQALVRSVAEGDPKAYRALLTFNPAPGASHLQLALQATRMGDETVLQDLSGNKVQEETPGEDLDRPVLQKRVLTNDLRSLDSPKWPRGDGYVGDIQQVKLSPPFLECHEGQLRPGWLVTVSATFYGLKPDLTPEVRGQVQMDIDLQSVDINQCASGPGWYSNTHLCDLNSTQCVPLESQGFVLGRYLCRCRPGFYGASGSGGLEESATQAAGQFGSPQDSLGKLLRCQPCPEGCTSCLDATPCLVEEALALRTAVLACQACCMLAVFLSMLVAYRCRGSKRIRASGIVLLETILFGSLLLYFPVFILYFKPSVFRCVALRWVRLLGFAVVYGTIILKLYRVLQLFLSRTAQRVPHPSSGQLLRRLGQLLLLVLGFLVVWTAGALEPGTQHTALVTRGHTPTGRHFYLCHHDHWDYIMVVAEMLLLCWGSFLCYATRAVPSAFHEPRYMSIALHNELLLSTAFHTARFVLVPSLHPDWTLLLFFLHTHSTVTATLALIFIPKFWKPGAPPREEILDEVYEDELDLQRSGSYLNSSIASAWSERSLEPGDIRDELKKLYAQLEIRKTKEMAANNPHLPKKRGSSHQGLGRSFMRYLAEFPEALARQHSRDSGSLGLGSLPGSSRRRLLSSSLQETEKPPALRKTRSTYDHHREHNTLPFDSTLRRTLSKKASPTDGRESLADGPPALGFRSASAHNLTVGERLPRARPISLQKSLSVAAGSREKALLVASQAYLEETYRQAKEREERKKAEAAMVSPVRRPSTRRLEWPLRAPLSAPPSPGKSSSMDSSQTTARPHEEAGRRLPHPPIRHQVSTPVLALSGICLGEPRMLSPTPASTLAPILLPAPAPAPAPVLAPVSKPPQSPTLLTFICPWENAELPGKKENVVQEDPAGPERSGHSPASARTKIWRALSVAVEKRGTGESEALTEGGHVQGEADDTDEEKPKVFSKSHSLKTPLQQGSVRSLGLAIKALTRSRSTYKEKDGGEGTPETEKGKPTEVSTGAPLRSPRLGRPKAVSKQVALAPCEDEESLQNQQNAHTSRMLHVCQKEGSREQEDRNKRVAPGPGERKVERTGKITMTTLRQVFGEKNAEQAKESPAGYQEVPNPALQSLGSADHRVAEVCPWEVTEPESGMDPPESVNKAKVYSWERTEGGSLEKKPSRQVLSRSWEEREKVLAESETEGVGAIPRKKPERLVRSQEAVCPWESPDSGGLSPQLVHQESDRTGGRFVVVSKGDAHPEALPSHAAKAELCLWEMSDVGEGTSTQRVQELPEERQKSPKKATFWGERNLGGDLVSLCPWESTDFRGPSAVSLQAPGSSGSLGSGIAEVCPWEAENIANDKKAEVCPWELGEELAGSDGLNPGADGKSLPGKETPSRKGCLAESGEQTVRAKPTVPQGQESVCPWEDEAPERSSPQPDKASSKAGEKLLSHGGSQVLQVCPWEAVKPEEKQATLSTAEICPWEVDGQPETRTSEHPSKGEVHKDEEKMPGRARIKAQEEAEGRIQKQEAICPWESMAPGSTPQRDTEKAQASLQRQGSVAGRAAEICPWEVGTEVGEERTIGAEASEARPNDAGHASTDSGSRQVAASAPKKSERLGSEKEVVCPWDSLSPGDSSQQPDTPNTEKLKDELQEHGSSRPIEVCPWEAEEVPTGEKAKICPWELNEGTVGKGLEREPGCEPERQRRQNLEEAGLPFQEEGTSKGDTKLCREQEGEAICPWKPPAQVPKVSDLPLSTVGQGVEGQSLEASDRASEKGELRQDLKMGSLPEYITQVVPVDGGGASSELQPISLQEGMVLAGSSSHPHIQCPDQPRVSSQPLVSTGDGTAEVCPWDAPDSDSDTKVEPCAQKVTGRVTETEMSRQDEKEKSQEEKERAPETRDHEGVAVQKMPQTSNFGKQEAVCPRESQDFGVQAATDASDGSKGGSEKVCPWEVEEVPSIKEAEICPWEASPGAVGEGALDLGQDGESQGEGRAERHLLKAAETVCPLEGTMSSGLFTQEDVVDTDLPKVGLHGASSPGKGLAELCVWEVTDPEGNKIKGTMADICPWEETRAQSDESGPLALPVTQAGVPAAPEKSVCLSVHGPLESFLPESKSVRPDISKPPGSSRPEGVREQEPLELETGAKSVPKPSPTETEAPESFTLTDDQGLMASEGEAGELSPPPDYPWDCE

Assays:
[1] = target: TRPM1 (mouse (endogenous in retina)) (UniProt Q2TV84); assay: affinity purification with mass spectrometry; control mouse retina lysate (1% Nonidet P-40, 2 mM EDTA, 20 mM HEPES pH 7.4), pre-cleared, incubated with anti-TRPM1 or anti-LRFN2 antibodies overnight at 4°C, Dynabeads; in-gel tryptic digestion, LC-MS (Orbitrap Elite); non-immune IgG as control
[2] = target: T1, LRFN2 (leucine-rich repeat and fibronectin III domain-containing 2) (mouse (endogenous in retina)) (UniProt Q80TG9); assay: as above
T1 sequence: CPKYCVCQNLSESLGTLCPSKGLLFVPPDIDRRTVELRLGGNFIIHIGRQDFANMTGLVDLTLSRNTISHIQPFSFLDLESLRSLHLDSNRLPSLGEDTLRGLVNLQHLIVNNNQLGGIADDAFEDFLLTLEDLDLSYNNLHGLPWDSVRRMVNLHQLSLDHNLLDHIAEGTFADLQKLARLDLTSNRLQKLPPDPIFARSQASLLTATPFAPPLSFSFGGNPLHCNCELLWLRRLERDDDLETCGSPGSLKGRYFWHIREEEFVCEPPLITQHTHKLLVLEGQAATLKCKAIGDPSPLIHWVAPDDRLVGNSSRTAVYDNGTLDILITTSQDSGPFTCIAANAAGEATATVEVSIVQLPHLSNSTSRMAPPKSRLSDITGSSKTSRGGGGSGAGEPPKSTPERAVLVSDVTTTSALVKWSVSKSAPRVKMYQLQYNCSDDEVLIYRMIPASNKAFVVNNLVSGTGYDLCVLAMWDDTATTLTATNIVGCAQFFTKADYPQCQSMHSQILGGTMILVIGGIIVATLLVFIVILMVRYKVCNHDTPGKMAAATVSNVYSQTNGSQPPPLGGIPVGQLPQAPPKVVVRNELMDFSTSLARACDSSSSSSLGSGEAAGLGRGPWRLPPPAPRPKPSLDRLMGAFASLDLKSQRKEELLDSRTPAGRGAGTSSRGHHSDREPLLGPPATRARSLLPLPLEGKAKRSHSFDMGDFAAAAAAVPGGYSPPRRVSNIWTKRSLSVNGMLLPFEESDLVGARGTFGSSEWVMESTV

Row | Molecule | binding [1] | binding [2]
1 | GPR179 (from UniProt E9PY61 28-2293) | binds | –
2 | TRPM1 (from UniProt Q2TV84 1-1622) | – | binds
3 | LRFN2 (leucine-rich repeat and fibronectin III domain-containing 2) (protein, UniProt Q80TG9 21-788) CPKYCVCQNLSESLGTLCPSKGLLFVPPDIDRRTVELRLGGNFIIHIGRQDFANMTGLVDLTLSRNTISHIQPFSFLDLESLRSLHLDSNRLPSLGEDTLRGLVNLQHLIVNNNQLGGIADDAFEDFLLTLEDLDLSYNNLHGLPWDSVRRMVNLHQLSLDHNLLDHIAEGTFADLQKLARLDLTSNRLQKLPPDPIFARSQASLLTATPFAPPLSFSFGGNPLHCNCELLWLRRLERDDDLETCGSPGSLKGRYFWHIREEEFVCEPPLITQHTHKLLVLEGQAATLKCKAIGDPSPLIHWVAPDDRLVGNSSRTAVYDNGTLDILITTSQDSGPFTCIAANAAGEATATVEVSIVQLPHLSNSTSRMAPPKSRLSDITGSSKTSRGGGGSGAGEPPKSTPERAVLVSDVTTTSALVKWSVSKSAPRVKMYQLQYNCSDDEVLIYRMIPASNKAFVVNNLVSGTGYDLCVLAMWDDTATTLTATNIVGCAQFFTKADYPQCQSMHSQILGGTMILVIGGIIVATLLVFIVILMVRYKVCNHDTPGKMAAATVSNVYSQTNGSQPPPLGGIPVGQLPQAPPKVVVRNELMDFSTSLARACDSSSSSSLGSGEAAGLGRGPWRLPPPAPRPKPSLDRLMGAFASLDLKSQRKEELLDSRTPAGRGAGTSSRGHHSDREPLLGPPATRARSLLPLPLEGKAKRSHSFDMGDFAAAAAAVPGGYSPPRRVSNIWTKRSLSVNGMLLPFEESDLVGARGTFGSSEWVMESTV | binds | –

No constants are given. Whether binding was seen depends on the method and setting. Binding seen in cells or lysates may run through a third protein. A yes stands for co-enrichment or nearness to the bait. Other partners may have been found.
